Reference: PubChem BioAssay AID540276 (National Center for Advancing Translational Sciences (NCATS), 2011)
Values joined by “and” are separate entries in the source; they are usually repeats but may differ in a detail not shown here. Equal values may be shown once. Screen size: about 300,000 compounds; about 5,400 (1.8%) were called active. This list was built around the results that the source calls inconclusive (neither active nor inactive); the mix of calls is not that of the screen. Calls follow the shape of the full dose curve; tested in HEK293 cells. A potency beside an inconclusive call is a rough fit, not a confirmed value. The source holds several records for some structures; these can differ, active in one and inactive in another.

Test: qHTS for inhibitors of binding or entry into cells for Marburg Virus
Details: Marburg virus pseudotyped entry inhibition, cell reporter; series mostly up to 37.8 µM
Potency is read from the fitted curve at half-maximal effect.

| SMILES | Potency |
| --- | --- |
| CCOc1ccc(CCNC(=O)CN2C(=O)c3cccnc3Oc3ccc(Cl)cc32)cc1 | inconclusive: 35.5 µM [inhibitor, partial curve, poor fit] |
| COc1cc(OC)c(/C=N/NC(=O)Cn2nc([N+](=O)[O-])cc2C)c(OC)c1 | inconclusive: 35.5 µM [inhibitor, single point] |
| CCOc1ccc(S(=O)(=O)NCCC(=O)NCC2CCCO2)cc1 (configuration not stated) | inconclusive: 0.1 µM [activator, full curve, poor fit] |
| C=C(C)C(O)C=Cc1ccccc1OC (configuration not stated) | inactive |
| CCc1nc(N2CCN(C(=O)CCl)CC2)c2c3c(sc2n1)CC(C)CC3 (configuration not stated) | inconclusive: 35.5 µM [inhibitor, single point] |
| O=[N+]([O-])c1nn(-c2ccc3c(c2)OCCO3)n(O)c1=NCc1ccccc1Cl | inactive |
| O=C(CCCOc1ccccc1)N1CCN(c2ccc(F)cc2)CC1 | inactive |
| O=c1c(C(c2nnnn2C2CCCCC2)N2CCCCC2)coc2ccc(Cl)cc12 (configuration not stated) | inconclusive: 0.103 µM [activator, full curve, poor fit] |
| CCC1(O)CC2CN(CCc3c([nH]c4ccccc34)[C@@](C(=O)OC)(c3cc4c(cc3OC)N(C=O)C3[C@]45CCN4CC=C[C@@](CC)([C@@H](OC(C)=O)[C@]3(O)C(=O)OC)[C@H]45)C2)C1 (some centres not stated) | inactive and active: 12.6 µM |
| COc1ccc(CNC(=O)Cn2nnc(-c3ccc(NC(=O)C4CCCCC4)cc3)n2)cc1 | inconclusive: 1 µM [activator, full curve, poor fit] |
| Cc1cccc(OC(=O)N2CCOCC2)c1 | inconclusive: 3.66 µM [inhibitor, partial curve, poor fit] |
| CSc1cccc(NC(=O)Cc2ccccc2[N+](=O)[O-])c1 | inconclusive: 14.1 µM [activator, partial curve, poor fit] |
| CC(C)(C)NC(=O)C(c1ccc(O)cc1)N(Cc1ccco1)C(=O)Cn1nnc(-c2cccs2)n1 (configuration not stated) | inconclusive: 4.11 µM [inhibitor, full curve, poor fit] |
| COC(=O)C1=C(N)Oc2cc(C)n(CCCn3ccnc3)c(=O)c2C1c1cccc(Cl)c1 (configuration not stated) | inactive |
| COc1cc(-c2nnc(CSc3nnc(N)s3)o2)cc(OC)c1OC | inactive |
| O=C(NC1CC1)c1cccc(NC(=O)c2cnn(-c3ccccc3)n2)c1 | inconclusive: 14.1 µM [inhibitor, single point] |
| O=C(CCl)NCc1cc(-c2ccc(Cl)cc2)no1 | inconclusive: 22.4 µM [inhibitor, single point] |

Looked up one by one from the list above (2):

| SMILES | Potency |
| --- | --- |
| O=C(CCl)NCc1cc(-c2ccc(Cl)cc2)no1 | inconclusive: 22.4 µM [inhibitor, single point] |
| O=c1c(C(c2nnnn2C2CCCCC2)N2CCCCC2)coc2ccc(Cl)cc12 (configuration not stated) | inconclusive: 0.103 µM [activator, full curve, poor fit] |
